Test results published in PubChem BioAssay AID2685 (National Center for Advancing Translational Sciences (NCATS), 2010).
The list shows a part of the results. The main result of the screen is listed elsewhere. These columns were measured beside it and carry no call. Most of these compounds were active or inconclusive in the main read-out, so they are no random draw. The note in brackets gives the kind of curve behind each potency; many fits are weak.

Assay: qHTS Assay for Lipid Storage Modulators in Drosophila S3 Cells;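 as to cell number change: cells counted by Cell Tracker Red CMTPX staining in the red channel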
Conditions: BODIPY lipid droplet fluorescence, 18-24 h; for cell number change: measured here: cell count max response, cells fed with added oleic acid
How it was run: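 Laser-scanning cytometry quantifies lipid droplet accumulation (500–530 nm total intensity; droplet/cell object ratio) in oleic acid-fed (400 uM added) Drosophila S3 cells treated with a concentration series. 20 uM Triacsin C defined 100% inhibition.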

[1] = measured here: lipid fluorescence (Fed channel) AC50, cells fed with added oleic acid
[2] = measured here: cell number channel AC50, cells fed with added oleic acid

Compound	cell number change	AC50 [1]	AC50 [2]
CCOC(=O)N1CCN(CC(O)COC2CC(C)CC(C)(C)C2)CC1 (configuration not stated)	9.21%	14.6 µM [rising, partial curve]	
CC(=O)OC[C@H]1O[C@@H](n2ccc(=O)[nH]c2=S)C(OC(C)=O)C1OC(C)=O (some centres not stated)	4.84%		
O=C(CC(=O)Nc1ccc(F)cc1)Nc1ccc(F)cc1			3.66 µM [rising, partial curve]
COc1ccc2c(c1OC)c(=O)n1c3ccc(OC(C)C(=O)NCCN4CCOCC4)cc3c3ccnc2c31 (configuration not stated)	8.41%		
Cc1ccc(S(=O)(=O)NC2=NCN(CCc3ccccc3)CN2)cc1	23.9%		
O=C(Nc1ccnn1C1CCN(Cc2cccc(F)c2F)CC1)C1CCCC1	6.94%	2.31 µM [rising, single point]	
CC(C)=N/N=c1\scc(C)n1Cc1ccco1	7.94%	18.4 µM [rising, single point]	
CCc1nc2c(c(SC)nn2-c2ccccc2)c(N)c1C(=O)OC	10.3%		
O=C(COC(=O)c1nc(Cl)c(Cl)c(Cl)c1Cl)c1ccc[nH]1		11.6 µM [falling, partial curve, poor fit]	0.326 µM [falling, full curve, poor fit]
Cc1ccc(-n2ncc3c(=O)n(CC(=O)N4CCN(C(=O)c5ccco5)CC4)cnc32)cc1	-5.84%	18.4 µM [rising, partial curve]	
CCCCCCCCCCOC(=O)Cn1c(COc2ccccc2OC)[n+](C)c2ccccc21	-53.8%	5.8 µM [falling, partial curve]	2.06 µM [falling, full curve]
Cc1ccc(C(=O)N2CCCC2)c(F)c1F	12.9%		
Cc1ccc(S(=O)(=O)Nc2nc3c(s2)C(=O)CC(C)(C)C3)cc1	33.7%	32.6 µM [rising, single point]	2.06 µM [rising, partial curve, poor fit]
Cc1cc(Cl)ccc1NC(=S)Nc1cccnc1	-12.7%	1.64 µM [falling, partial curve, poor fit]	
COc1cc2c(O)c3c(c(-c4ccc5c(c4)OCO5)c2cc1OC)C(=O)OC3	-26.2%	9.2 µM [falling, partial curve, poor fit]	
COc1ccccc1N1CCN(C(=O)CCS(=O)(=O)c2ccc3c(c2)NC(=O)C(C)S3)CC1 (configuration not stated)	4.59%	6.51 µM [rising, single point]	
O=C(Nc1cc(-c2nc3ncccc3o2)ccc1Cl)c1ccc([N+](=O)[O-])o1	15.2%	29.1 µM [falling, single point]	
CCOC(=O)c1cc(S(=O)(=O)N(C)Cc2ccccc2)cn1C	17.5%	16.4 µM [falling, partial curve, poor fit]	
O=C(Nc1ccc(N2CCN(C(=O)c3cccs3)CC2)cc1)c1ccc(Br)o1	22.4%	0.731 µM [rising, single point]	
O=C(CCCN1C(=O)c2ccccc2C1=O)NC1=NCCS1	5.37%		

Rewritten field by field: part of the list above
Cc1ccc(C(=O)N2CCCC2)c(F)c1F
  cell number change: 12.9%
Cc1cc(Cl)ccc1NC(=S)Nc1cccnc1
  cell number change: -12.7%; AC50 [1]: 1.64 µM [falling, partial curve, poor fit]
COc1ccccc1N1CCN(C(=O)CCS(=O)(=O)c2ccc3c(c2)NC(=O)C(C)S3)CC1 (configuration not stated)
  cell number change: 4.59%; AC50 [1]: 6.51 µM [rising, single point]
O=C(Nc1ccc(N2CCN(C(=O)c3cccs3)CC2)cc1)c1ccc(Br)o1
  cell number change: 22.4%; AC50 [1]: 0.731 µM [rising, single point]

The list continues:

Compound	cell number change	AC50 [1]	AC50 [2]
CCOc1ccccc1Nc1cc2n(c(=O)n1)CCc1cc(OC)c(OC)cc1-2	-2.41%	0.00651 µM [falling, full curve, poor fit]	
Cc1ccc(-n2c(COc3ccccc3)n[nH]c2=S)cc1	67.3%	20.6 µM [rising, single point]	18.4 µM [rising, single point]
Cc1nc2ccc(NC(=O)c3cccs3)cc2s1	-6.39%	0.224 µM [falling, full curve, poor fit]	
COc1ccccc1N1CCN(C(c2ccccc2Cl)c2nnnn2C(C)(C)C)CC1 (configuration not stated)	-56.7%	2.59 µM [rising, partial curve]	29.1 µM [falling, single point]
O=C(O)CN1C(=O)/C(=C\c2cccc(OCc3ccc(Cl)cc3)c2)SC1=S		29.1 µM [rising, single point]	
Cc1nn(C(C)C(=O)NCCCN(Cc2ccccc2)C(C)C)c(=O)c2c1sc1ccccc12 (configuration not stated)		6.51 µM [rising, single point]	
CN1C(c2ccc(F)cc2)=CS/C1=C(/C#N)c1nnc(N2CCOCC2)n1-c1ccccc1	12.2%	1.84 µM [rising, single point]	
CCOC(=O)CCc1c(C)nc(SCC(=O)O)c(C#N)c1C	4.01%	0.146 µM [rising, full curve]	
Cn1c(O)c(N=NC(=O)CNC(=O)c2ccccc2)c2ccccc21	-1.28%	5.17 µM [rising, single point]	0.206 µM [falling, full curve, poor fit]
CCN(CC)CCCN1C(=O)C(=O)/C(=C(/O)c2ccc(OC)c(Cl)c2)C1c1ccco1 (configuration not stated)	-6.73%	1.03 µM [falling, full curve]	
Cc1ccc(-n2nc3c(c2NC(=O)/C=C\c2ccc4c(c2)OCO4)CSC3)cc1	1.87%		
COc1ccc(NC(=O)C2CCN(c3nc(-c4ccc(OC)cc4)no3)CC2)cc1	31.4%	0.13 µM [rising, full curve, poor fit]	8.2 µM [rising, partial curve, poor fit]
O=C(CSc1nc2c(cnn2-c2ccc(F)cc2)c(=O)[nH]1)N1CCCc2ccccc21	-27.4%	2.06 µM [falling, partial curve]	
O=C(COc1ccccc1F)Nc1ccc(-c2nc3ccccc3s2)cc1	17.3%	23.1 µM [rising, partial curve]	
COc1ccc(C(=O)NCc2nnc(SCC(=O)N3CCCCCC3)o2)cc1OC	-15.2%	32.6 µM [rising, single point]	
O=C(OCC(=O)C12CC3CC(CC(C3)C1)C2)c1ccc(O)cc1O	-65.7%	18.4 µM [falling, single point]	23.1 µM [falling, single point]
NNc1nnc(-c2ccccc2)c(-c2ccccc2)n1	0.799%	0.0206 µM [rising, full curve, poor fit]	
CCN(CC)C(=O)c1cc2c(=O)c3cc(Cl)ccc3oc2nc1C	5.33%		
CCCCC(=O)/C=C/n1c(=S)oc2ccccc21	-26.4%		
CC1CCN(CCCn2c(=S)[nH]c3c(sc4ccccc43)c2=O)CC1	-2.18%	5.17 µM [falling, single point]	2.59 µM [falling, partial curve]

Compound	cell number change	AC50 [1]	AC50 [2]
Cc1ccc(NC(=S)NC(C)(C)C)c([N+](=O)[O-])c1	-21.7%	6.51 µM [falling, partial curve, poor fit]	
COc1cccc(NC(=O)c2nn(C)c(C(=O)Nc3cccc(OC)c3)c2[N+](=O)[O-])c1	-6.04%		
CCOC(=O)CCc1c(C)c2ccc(OC3CCCCC3=O)c(C)c2oc1=O (configuration not stated)	-39.3%	13 µM [falling, partial curve, poor fit]	
O=C(CSc1ccccc1)Nc1nnc(COc2ccc(Cl)cc2)s1		1.46 µM [falling, full curve]	
CSc1ncccc1C(=O)NCc1ccc(C)cc1	-25.7%		4.11 µM [falling, full curve, poor fit]
CCOc1ccc(C2c3c(oc4ccccc4c3=O)C(=O)N2CCCN2CCOCC2)cc1OCC (configuration not stated)	11.7%	0.651 µM [falling, single point]	
COCc1cc(C)nc(SCC(=O)Nc2nc(C)cs2)c1C#N	-9.91%	6.51 µM [falling, partial curve, poor fit]	
O=C(CN1CCCC1)N1c2ccccc2Sc2ccccc21	32.7%	0.0103 µM [falling, full curve, poor fit]	16.4 µM [rising, single point]
C=CCOC(=O)C(C#N)c1nc2ccccc2nc1N1CCN(c2ccccc2OC)CC1 (configuration not stated)	-3.23%	0.651 µM [rising, partial curve]	
Cc1cc2occ(CC(=O)NNC(=O)c3ccccc3)c2cc1C	14.2%	0.411 µM [rising, full curve]	
Cc1ccc(NS(=O)(=O)c2ccc(C)c(NC(=O)COc3ccc4ccccc4c3)c2)c(C)c1	81.2%	29.1 µM [falling, single point]	
C=C(C)COc1ccc(-c2n[nH]c(C)c2-c2ccc(Br)cc2)c(O)c1	-63.5%	32.6 µM [falling, single point]	32.6 µM [falling, single point]
Cc1ccc(C)c(N2CCN(C3CCCCC3NS(=O)(=O)c3ccccc3)CC2)c1 (configuration not stated)	30.9%	25.9 µM [rising, partial curve]	32.6 µM [rising, single point]
O=C(CCCOc1ccc(Cl)cc1)NCCc1ccccc1	21.6%	0.291 µM [rising, single point]	
CCN1CCN(C(=O)N[C@@H](C(=O)N[C@@H]2C(=O)N3[C@@H]2SC(C)(C)[C@@H]3C(=O)O)c2ccccc2)C(=O)C1=O	-1.55%		0.0731 µM [rising, full curve, poor fit]
CN1CCN(S(=O)(=O)c2ccc([N+](=O)[O-])cc2)CC1	17.9%		0.103 µM [rising, full curve, poor fit]
COc1ccc(Nc2nnc(SCC(=O)N3CCCC3)s2)cc1		2.06 µM [rising, full curve]	1.84 µM [rising, partial curve]
CCOc1ccc(-n2c(SCC(N)=O)nc3c([nH]c4ccccc43)c2=O)cc1	12.5%		
